Results are given in words; binding and its absence hold for the method and conditions named. Binding seen in cells or lysates may run through a third protein.

Protein sequences, listed by entry. Tags and fused reporters are not part of them.
UniProt Q5JSL3: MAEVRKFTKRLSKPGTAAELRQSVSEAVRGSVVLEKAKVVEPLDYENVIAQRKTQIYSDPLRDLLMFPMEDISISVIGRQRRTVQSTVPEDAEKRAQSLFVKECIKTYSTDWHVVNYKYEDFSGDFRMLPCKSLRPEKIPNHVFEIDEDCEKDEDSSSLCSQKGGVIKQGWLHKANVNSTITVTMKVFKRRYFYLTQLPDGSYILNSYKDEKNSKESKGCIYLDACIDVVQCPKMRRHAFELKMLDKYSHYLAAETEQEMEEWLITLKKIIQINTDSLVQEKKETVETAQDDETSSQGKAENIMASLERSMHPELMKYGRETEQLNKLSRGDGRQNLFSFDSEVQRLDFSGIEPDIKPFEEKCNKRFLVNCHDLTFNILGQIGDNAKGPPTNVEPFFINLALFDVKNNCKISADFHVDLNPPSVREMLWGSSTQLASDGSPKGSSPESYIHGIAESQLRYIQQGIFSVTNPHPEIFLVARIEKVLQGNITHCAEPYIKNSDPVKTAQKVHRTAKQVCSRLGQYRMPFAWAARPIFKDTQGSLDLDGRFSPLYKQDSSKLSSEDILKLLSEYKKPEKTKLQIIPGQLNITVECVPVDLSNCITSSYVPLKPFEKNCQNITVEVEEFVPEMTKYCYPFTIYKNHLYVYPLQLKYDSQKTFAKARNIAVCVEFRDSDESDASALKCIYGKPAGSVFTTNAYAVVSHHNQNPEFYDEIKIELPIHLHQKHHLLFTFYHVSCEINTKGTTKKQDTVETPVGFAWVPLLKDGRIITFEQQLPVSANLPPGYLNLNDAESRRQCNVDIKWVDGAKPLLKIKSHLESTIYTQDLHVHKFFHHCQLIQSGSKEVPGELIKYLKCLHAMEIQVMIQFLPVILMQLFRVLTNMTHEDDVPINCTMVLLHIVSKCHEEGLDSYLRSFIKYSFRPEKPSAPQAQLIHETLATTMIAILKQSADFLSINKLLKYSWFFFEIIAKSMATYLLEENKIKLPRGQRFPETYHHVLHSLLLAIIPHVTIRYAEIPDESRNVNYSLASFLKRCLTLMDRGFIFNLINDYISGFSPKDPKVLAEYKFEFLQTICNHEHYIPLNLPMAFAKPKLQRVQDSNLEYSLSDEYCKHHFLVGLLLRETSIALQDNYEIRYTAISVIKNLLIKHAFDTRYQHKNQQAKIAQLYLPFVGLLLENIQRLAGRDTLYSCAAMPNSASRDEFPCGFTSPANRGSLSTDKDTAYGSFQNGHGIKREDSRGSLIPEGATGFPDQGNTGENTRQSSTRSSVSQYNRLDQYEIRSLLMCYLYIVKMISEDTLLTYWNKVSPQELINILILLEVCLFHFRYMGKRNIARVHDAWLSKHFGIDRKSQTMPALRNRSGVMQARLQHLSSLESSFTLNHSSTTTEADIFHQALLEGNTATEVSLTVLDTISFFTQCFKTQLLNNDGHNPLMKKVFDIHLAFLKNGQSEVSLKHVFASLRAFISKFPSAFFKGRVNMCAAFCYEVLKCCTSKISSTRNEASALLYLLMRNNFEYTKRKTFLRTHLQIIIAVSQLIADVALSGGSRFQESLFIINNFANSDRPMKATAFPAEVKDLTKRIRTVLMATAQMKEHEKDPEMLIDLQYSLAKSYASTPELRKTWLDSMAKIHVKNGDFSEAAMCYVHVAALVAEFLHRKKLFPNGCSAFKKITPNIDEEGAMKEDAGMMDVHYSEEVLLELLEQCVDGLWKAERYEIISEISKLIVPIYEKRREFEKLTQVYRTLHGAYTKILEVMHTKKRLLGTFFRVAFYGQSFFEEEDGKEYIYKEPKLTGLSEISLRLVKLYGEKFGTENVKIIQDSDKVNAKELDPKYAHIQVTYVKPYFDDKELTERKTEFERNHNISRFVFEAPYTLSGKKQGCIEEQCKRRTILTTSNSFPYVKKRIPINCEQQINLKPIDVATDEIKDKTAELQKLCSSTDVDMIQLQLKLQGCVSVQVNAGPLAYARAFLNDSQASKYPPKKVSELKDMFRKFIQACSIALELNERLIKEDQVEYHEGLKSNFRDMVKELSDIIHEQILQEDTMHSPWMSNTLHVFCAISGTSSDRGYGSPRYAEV
UniProt P45973: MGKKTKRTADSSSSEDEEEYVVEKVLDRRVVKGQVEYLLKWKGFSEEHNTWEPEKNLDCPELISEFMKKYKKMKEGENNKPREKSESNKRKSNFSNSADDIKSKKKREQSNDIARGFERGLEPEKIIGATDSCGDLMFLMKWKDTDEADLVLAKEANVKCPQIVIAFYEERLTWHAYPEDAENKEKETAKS

For one substance, binding results are on record in paper PMC10223333.

The target of this test is Halo-tagged DOCK11 (dedicator of cytokinesis 11) (UniProt Q5JSL3). Nature of the test: co-IP.

With “heterochromatin protein 1 alpha (HP1α) (from UniProt P45973 1-191)”, the binding entry was “no binding”.
